Measured values from publication PMC8891368.
These are yes or no findings as the source states them, for the method shown. Binding seen in cells or lysates may run through a third protein. Some results given as binding are weak or reduced against the parent protein; the word gives no strength. For part of these data: Tags and fused reporters may be left off the sequences shown.

Chains of the proteins cited; added tags and fusions are not shown.
UniProt Q16665: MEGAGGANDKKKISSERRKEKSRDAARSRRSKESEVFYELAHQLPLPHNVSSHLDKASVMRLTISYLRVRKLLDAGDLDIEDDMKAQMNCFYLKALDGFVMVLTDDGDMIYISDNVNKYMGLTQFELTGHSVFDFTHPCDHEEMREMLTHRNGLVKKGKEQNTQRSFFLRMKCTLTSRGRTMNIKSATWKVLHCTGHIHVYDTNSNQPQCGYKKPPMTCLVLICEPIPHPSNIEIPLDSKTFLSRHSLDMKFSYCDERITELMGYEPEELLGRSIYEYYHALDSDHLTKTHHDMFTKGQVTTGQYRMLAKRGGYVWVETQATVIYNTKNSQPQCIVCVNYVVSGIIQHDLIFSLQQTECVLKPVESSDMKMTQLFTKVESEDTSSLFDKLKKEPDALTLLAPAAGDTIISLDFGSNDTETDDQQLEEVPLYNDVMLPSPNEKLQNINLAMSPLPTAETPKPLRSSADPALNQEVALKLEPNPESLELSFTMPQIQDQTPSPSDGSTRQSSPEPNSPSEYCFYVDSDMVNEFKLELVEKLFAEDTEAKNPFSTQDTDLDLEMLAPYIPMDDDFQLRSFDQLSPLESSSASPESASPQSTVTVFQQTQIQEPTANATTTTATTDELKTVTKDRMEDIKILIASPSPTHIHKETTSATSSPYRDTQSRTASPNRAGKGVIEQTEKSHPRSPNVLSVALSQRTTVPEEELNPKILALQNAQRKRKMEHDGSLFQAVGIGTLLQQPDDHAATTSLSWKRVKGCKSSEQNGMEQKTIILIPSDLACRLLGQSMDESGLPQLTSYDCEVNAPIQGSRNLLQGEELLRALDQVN

Assays:
[1] = biological target: T1, GST-fused ALDOA (UniProt P04075); assay: pull-down; GST pull-down; GST fusion as bait, prey 'endogenous transcribed/translated' protein, western blotting; only the target purified
T1 sequence: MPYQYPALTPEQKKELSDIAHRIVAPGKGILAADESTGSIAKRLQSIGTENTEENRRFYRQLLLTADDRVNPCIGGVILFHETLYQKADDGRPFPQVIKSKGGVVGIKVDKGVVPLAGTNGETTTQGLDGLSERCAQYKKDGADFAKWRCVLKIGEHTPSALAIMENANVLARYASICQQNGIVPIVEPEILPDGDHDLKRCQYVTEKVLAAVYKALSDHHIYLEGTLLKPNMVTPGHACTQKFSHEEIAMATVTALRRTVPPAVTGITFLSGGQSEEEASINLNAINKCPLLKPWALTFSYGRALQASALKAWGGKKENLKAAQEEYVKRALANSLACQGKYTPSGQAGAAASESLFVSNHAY

[2] = biological target: hypoxia-inducible factor 1α (HIF-1α) (human (endogenous in MCF-7 and MDA-MB-231)) (UniProt Q16665); assay: co-IP; endogenous proteins, MCF-7 and MDA-MB-231 lysates, anti-HIF-1α or IgG, western blotting; with or without ATP treatment of the cells
[3] = biological target: GST-fused HIF-1α (UniProt Q16665); assay: pull-down; GST pull-down; GST fusion as bait, prey 'endogenous transcribed/translated' protein, western blotting; only the target purified

endogenous transcribed/translated HIF-1α (from UniProt Q16665 1-826)
binding [1]: binds

B1: aldolase A (ALDOA) (protein, UniProt P04075 1-364)
chain: MPYQYPALTPEQKKELSDIAHRIVAPGKGILAADESTGSIAKRLQSIGTENTEENRRFYRQLLLTADDRVNPCIGGVILFHETLYQKADDGRPFPQVIKSKGGVVGIKVDKGVVPLAGTNGETTTQGLDGLSERCAQYKKDGADFAKWRCVLKIGEHTPSALAIMENANVLARYASICQQNGIVPIVEPEILPDGDHDLKRCQYVTEKVLAAVYKALSDHHIYLEGTLLKPNMVTPGHACTQKFSHEEIAMATVTALRRTVPPAVTGITFLSGGQSEEEASINLNAINKCPLLKPWALTFSYGRALQASALKAWGGKKENLKAAQEEYVKRALANSLACQGKYTPSGQAGAAASESLFVSNHAY
binding [2]: binds

B2: endogenous transcribed/translated ALDOA (protein, UniProt P04075 1-364)
chain: MPYQYPALTPEQKKELSDIAHRIVAPGKGILAADESTGSIAKRLQSIGTENTEENRRFYRQLLLTADDRVNPCIGGVILFHETLYQKADDGRPFPQVIKSKGGVVGIKVDKGVVPLAGTNGETTTQGLDGLSERCAQYKKDGADFAKWRCVLKIGEHTPSALAIMENANVLARYASICQQNGIVPIVEPEILPDGDHDLKRCQYVTEKVLAAVYKALSDHHIYLEGTLLKPNMVTPGHACTQKFSHEEIAMATVTALRRTVPPAVTGITFLSGGQSEEEASINLNAINKCPLLKPWALTFSYGRALQASALKAWGGKKENLKAAQEEYVKRALANSLACQGKYTPSGQAGAAASESLFVSNHAY
binding [3]: binds
